These are yes or no findings as the source states them, for the method shown. Binding seen in cells or lysates may run through a third protein. These calls come from enrichment with a bait or labelling near it, and not all partners need be listed. For part of these data: Tags and fused reporters may be left off the sequences shown.
What was measured:
Assay in all cases: affinity purification with mass spectrometry
[1] = molecular target: T1, GFP-COR28 (COLD REGULATED GENE 28) (Arabidopsis thaliana) (UniProt Q8L983)
T1 sequence: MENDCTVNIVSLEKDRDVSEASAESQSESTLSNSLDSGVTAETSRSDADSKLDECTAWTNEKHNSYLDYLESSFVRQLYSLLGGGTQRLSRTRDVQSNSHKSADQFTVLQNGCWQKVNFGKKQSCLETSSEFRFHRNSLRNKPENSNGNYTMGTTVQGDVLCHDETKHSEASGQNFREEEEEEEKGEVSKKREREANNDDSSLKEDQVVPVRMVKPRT

The chains behind the UniProt entries cited, without tags or fusion partners. Where a name states a change or a piece, a line headed by the entry shows the natural chain unless it says otherwise.
UniProt Q8L8T7: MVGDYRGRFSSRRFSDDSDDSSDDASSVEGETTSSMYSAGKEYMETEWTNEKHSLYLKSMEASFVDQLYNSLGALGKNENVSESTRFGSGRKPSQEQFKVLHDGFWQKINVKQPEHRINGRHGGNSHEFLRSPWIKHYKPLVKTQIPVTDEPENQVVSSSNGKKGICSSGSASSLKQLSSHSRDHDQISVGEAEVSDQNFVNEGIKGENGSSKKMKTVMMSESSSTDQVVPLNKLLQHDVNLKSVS
UniProt P14713: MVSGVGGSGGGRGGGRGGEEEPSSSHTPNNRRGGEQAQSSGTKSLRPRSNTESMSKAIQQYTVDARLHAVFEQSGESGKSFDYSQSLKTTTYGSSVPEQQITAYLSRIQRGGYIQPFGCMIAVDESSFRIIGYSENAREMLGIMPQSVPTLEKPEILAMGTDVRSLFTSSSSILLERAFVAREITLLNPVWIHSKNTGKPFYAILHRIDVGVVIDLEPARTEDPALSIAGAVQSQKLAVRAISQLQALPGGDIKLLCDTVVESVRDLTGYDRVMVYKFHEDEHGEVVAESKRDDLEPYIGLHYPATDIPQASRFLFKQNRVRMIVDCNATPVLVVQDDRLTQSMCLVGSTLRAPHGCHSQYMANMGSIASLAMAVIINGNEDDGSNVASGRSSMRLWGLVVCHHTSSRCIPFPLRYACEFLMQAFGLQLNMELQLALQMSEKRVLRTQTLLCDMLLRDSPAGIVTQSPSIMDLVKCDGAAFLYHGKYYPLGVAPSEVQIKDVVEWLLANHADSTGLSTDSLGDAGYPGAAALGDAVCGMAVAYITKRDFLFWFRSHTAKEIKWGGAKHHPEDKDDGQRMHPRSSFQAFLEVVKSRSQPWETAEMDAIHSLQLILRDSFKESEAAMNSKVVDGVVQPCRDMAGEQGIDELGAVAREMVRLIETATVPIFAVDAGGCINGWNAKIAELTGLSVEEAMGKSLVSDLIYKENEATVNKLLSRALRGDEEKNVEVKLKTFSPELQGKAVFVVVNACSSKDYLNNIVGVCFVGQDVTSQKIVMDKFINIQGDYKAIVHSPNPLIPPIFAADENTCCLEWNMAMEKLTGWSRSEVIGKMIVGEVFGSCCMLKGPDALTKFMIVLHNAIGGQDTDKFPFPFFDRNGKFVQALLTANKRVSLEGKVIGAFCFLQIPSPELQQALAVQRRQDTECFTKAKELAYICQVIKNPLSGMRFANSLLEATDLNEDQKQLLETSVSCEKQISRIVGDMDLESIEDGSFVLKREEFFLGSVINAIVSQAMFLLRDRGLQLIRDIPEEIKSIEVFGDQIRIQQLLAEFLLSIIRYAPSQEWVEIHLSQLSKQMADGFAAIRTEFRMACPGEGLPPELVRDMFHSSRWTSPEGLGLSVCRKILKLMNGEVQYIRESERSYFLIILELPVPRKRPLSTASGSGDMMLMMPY
UniProt Q9M2S1: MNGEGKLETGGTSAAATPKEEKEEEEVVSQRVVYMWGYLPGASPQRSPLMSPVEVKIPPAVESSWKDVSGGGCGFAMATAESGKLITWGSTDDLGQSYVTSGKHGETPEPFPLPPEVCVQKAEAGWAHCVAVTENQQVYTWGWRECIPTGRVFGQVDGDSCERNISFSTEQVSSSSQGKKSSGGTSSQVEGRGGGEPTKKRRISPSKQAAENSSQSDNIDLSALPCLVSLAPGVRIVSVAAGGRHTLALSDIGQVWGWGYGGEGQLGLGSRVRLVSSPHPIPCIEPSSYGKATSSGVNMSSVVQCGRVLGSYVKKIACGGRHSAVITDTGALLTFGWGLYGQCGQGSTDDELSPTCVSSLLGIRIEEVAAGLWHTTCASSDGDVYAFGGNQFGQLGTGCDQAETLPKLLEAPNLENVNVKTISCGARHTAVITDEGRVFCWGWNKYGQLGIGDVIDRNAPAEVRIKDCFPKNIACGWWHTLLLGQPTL

[2] = molecular target: YFP-COR27 (COLD REGULATED GENE 27) (Arabidopsis thaliana) (UniProt Q8L8T7)
[3] = molecular target: T2, LNK1-HFC (NIGHT LIGHT INDUCIBLE AND CLOCK REGULATED 1 with 3x-FLAG-6x-His C-terminal tag) (Arabidopsis thaliana) (UniProt A8MQN2)
T2 sequence: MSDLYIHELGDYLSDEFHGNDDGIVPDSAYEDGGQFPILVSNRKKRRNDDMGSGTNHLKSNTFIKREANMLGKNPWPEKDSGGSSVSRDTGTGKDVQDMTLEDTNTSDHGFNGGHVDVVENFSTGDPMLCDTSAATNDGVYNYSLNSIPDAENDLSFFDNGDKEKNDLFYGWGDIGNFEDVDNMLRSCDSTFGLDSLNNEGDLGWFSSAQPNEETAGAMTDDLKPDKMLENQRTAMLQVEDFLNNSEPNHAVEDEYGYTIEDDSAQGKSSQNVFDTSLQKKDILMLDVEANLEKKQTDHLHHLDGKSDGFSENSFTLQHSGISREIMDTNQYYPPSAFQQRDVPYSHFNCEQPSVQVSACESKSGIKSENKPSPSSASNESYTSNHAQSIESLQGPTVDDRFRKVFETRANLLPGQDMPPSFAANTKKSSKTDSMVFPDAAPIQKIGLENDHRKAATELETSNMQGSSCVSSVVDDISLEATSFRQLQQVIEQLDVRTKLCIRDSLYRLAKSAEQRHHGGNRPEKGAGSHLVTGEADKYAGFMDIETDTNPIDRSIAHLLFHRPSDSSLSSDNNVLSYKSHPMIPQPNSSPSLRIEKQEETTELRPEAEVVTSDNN

[4] = molecular target: T3, LNK2-HFC (NIGHT LIGHT INDUCIBLE AND CLOCK REGULATED 2 with 3x-FLAG-6x-His C-terminal tag) (Arabidopsis thaliana) (UniProt F4JCX9)
T3 sequence: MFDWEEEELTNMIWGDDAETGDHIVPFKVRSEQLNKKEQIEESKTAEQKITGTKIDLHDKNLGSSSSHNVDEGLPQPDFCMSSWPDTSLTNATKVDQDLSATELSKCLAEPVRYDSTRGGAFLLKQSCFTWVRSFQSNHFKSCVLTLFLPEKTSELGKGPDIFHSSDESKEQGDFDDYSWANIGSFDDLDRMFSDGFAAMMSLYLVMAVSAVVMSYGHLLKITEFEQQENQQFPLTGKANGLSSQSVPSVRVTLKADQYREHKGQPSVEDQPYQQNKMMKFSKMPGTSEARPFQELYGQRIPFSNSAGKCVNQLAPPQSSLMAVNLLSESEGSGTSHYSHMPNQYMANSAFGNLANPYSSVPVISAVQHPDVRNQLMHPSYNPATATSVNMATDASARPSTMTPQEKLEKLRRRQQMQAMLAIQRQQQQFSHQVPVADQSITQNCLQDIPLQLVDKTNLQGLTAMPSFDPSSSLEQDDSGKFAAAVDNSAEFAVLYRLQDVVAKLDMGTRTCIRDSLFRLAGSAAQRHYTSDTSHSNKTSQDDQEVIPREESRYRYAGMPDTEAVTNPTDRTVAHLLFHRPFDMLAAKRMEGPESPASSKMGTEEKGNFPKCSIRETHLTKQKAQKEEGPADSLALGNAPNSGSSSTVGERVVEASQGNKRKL

[5] = molecular target: T4, RVE8-HFC (REVEILLE 8 with 3x-FLAG-6x-His C-terminal tag) (Arabidopsis thaliana) (UniProt Q8RWU3)
T4 sequence: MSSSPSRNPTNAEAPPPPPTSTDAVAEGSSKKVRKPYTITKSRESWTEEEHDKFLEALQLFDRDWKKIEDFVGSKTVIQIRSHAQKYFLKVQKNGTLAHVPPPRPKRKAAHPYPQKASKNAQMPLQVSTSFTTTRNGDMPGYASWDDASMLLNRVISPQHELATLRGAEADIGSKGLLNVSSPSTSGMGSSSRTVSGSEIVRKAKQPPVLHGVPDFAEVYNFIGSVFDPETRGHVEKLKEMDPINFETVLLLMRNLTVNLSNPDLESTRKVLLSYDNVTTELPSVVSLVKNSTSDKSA

Measured: binding

PHYTOCHROME B (PHYB) (from UniProt P14713 1-1172)
binds: [1] | [2]

REGULATOR OF CHROMOSOME CONDENSATION 1-LIKE (RCC1L)
binds: [3] | [4] | [5]

TOLERANT TO CHILLING/FREEZING 1 (TCF1) (from UniProt Q9M2S1)
not listed: [1]
binds: all other assays above
